Assay results reported in US20250289861A1.

Sequences of proteins named here, by UniProt entry; tags and fusion partners are left off. A change or cut given only in a name is not applied to a line headed by its entry.
UniProt P55899: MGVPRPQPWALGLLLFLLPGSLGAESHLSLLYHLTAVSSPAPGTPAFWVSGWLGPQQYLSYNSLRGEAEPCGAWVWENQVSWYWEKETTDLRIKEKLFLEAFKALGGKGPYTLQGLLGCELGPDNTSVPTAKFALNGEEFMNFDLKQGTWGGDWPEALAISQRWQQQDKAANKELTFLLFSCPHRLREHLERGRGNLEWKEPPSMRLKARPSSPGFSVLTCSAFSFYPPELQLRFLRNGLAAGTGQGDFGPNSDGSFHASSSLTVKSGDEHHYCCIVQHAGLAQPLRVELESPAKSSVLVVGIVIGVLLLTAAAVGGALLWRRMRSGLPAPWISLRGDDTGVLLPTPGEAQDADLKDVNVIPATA

Assays:
[1] = biological target: Human FcRn-GST protein (human) (UniProt P55899); test: ELISA at pH 7.4: fusion protein coated on the plate, Human FcRn-GST titrated (x axis, ug/ml), anti-GST Ab-HRP, A450
[2] = biological target: Human FcRn-GST protein (human) (UniProt P55899); test: ELISA at pH 6.0: fusion protein coated on the plate, Human FcRn-GST titrated (x axis, ug/ml), anti-GST Ab-HRP, A450
[3] = biological target: Human FcRn-GST protein (human) (UniProt P55899); test: ELISA, fusion coated at 4 ug/mL, Human FcRn-GST titrated, pH 6.0 and 7.4, anti-GST Ab-HRP

Measured: binding

B1: PF1802_M022 (GLP1-Fc-mut.IGF1) (Fc fusion)
chain: HGEGTFTSDVSSYLEEQAAKEFIAWLVKGGGGSAPAPGGGGSDKTHTCPPCPAPELLGGPSVFLFPPKPKDTLMISRTPEVTCVVVDVSHEDPEVKFNWYVDGVEVHNAKTKPREEQYASTYRVVSVLTVEHWDWLNGKEYKCKVSNKALPAPIEKTISKAKGQPREPQVYTLPPSREEMTKNQVSLTCLVKGFYPSDIAVEWESNGQPENNYKTTPPVLDSDGSFFLYSKLTVDKSRWQQGNVFSCSVLHEALHNHYTQKSLSLSPGKGGGGSGGGGSGGGGSGGGGSGAHSGPATLCGAELVDALQFVCGDRGFYFNKPTGYGSSSRRAPQTGIVDECCARSCDLRRLEMYCAPLKPTKST
binds: all assays above

B2: PF1802_M020 (GLP1-Fc-mut.IGF1) (Fc fusion)
chain: B1 chain with E131Y, W133M
binds: all assays above

B3: PF1802_M021 (GLP1-Fc-mut.IGF1) (Fc fusion)
chain: B1 chain with W133M
binds: all assays above

Substitutions are numbered along the chain they refer to. No constants are given. Whether binding was seen depends on the method and setting. A result given as binding can be weak or reduced; the word gives no strength. Tags and fused reporters may be left off the sequences shown.
